The values that follow come from publication doi:10.1101/2025.04.19.649636.

The chains behind the UniProt entries cited, without tags or fusion partners. Residues count along the entry.
UniProt Q96CG8, residues 31-243: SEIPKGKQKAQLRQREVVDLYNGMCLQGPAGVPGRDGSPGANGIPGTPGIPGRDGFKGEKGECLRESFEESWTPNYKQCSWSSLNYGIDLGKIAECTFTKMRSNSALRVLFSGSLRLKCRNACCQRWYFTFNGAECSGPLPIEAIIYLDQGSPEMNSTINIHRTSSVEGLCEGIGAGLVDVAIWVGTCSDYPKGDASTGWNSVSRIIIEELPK
UniProt Q13443, residues 29-819: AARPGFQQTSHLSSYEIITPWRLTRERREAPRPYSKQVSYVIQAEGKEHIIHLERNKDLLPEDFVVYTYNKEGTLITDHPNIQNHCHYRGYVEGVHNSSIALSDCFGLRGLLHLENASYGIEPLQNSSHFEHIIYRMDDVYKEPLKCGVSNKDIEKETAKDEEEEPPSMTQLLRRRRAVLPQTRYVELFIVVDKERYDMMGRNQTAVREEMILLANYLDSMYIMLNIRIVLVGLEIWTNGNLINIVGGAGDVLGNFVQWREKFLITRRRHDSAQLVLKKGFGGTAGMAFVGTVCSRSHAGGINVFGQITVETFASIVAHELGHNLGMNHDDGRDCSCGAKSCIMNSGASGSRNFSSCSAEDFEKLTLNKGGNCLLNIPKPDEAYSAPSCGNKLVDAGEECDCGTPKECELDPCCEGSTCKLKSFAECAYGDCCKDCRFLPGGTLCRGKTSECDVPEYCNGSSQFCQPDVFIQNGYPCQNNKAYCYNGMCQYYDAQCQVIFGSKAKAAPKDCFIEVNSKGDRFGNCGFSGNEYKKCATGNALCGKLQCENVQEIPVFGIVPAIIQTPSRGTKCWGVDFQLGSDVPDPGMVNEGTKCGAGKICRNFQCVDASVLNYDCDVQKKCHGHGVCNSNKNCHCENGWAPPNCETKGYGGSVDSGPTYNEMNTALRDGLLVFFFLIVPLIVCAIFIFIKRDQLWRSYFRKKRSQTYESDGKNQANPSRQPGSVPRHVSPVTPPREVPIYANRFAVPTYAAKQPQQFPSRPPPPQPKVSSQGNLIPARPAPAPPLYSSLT

Read-outs that look alike come from different tables or passages of the source. No constants are given. Whether binding was seen depends on the method and setting. In cells and extracts the contact can be indirect. Some binding calls cover weakened binding; strength is not graded here.

Assay [1] has as its target recombinant human CTHRC1 Protein (human) (UniProt Q96CG8). In words: co-IP.
Assay [2] has the same target. The assay is described as follows: co-IP. This is another data set of the same source.

As for “ADAM9 of human aortic smooth muscle cells (from UniProt Q13443 29-819)”, the binding entry in assay [1] is reported as “binds”.

B1: ADAM metallopeptidase domain 9 (ADAM9) of MOVAS cells (protein, UniProt Q61072 30-845)
chain: GRPDLEQTVHLSSYEIITPWRLTRERREALGPSSQQISYVIQAQGKQHIIHLERNTDLLPNDFVVYTYDKEGSLLSDHPNVQSHCHYRGYVEGVQNSAVAVSACFGLRGLLHLENASFGIEPLHNSSHFEHIFYPMDGIHQEPLRCGVSNRDTEKEGTQGDEEEHPSVTQLLRRRRAVLPQTRYVELFIVVDKERYDMMGRNQTAVREEMIRLANYLDSMYIMLNIRIVLVGLEIWTDRNPINIIGGAGDVLGNFVQWREKFLITRWRHDSAQLVLKKGFGGTAGMAFVGTVCSRSHAGGINVFGQITVETFASIVAHELGHNLGMNHDDGRECFCGAKSCIMNSGASGSRNFSSCSAEDFEKLTLNKGGSCLLNIPKPDEAYSAPSCGNKLVDPGEECDCGTAKECEVDPCCEGSTCKLKSFAECAYGDCCKDCQFLPGGSMCRGKTSECDVPEYCNGSSQFCPPDVFIQNGYPCQNSKAYCYNGMCQYYDAQCQVIFGSKAKAAPRDCFIEVNSKGDRFGNCGFSGSEYKKCATGNALCGKLQCENVQDMPVFGIVPAIIQTPSRGTKCWGVDFQLGSDVPDPGMVNEGTKCDAGKICRNFQCVNASVLNYDCDIQGKCHGHGVCNSNKNCHCEDGWAPPHCDTKGYGGSVDSGPTYNAKSTALRDGLLVFFFLIVPLVAAAIFLFIKRDELRKTFRKKRSQMSDGRNQANVSRQPGDPSISRPPGGPNVSRPPGGPGVSRPPGGPGVSRPPGGPGVSRPPPGHGNRFPVPTYAAKQPAQFPSRPPPPQPKISSQGNLIPARPAPAPPLYSSLT
For B1, the binding entry in assay [2] was “binds”.
